Data as given in PubChem BioAssay AID248 (DTP/NCI, 2004).
The list is a part of this screen's results and no random one: it gathers tests that were run many times, whatever their T/C, doses with no T/C, and many T/C values between a quarter and a half above the control. Other doses and runs of a compound stand elsewhere. T/C gives the treated animals as a percentage of the vehicle group. Some doses have a count of surviving animals in place of a T/C: the source files T/C as zero there, which appears to mark a toxic dose or a test without result, not a measured value. Some survivor counts are full or nearly so, which does not show that the dose was tolerated: survival well below the control is almost never listed, so the zero probably covers shortened survival too. Counts of survivors are from the toxicity check (mostly the fifth day) where no day follows; animals may have died later. Schedules are NCI's codes, taken here to give the interval after Q, in days (D) or hours (H), and the number of doses after X. Some schedule codes hold Z or #, which are not explained here. Some doses were run more than once; the values are given in rising order. For survival time, this PubChem deposit counts one and a half times the control or more as active, and values a quarter to a half above the control carry no call in these data; other NCI protocols may use other cut-offs. Some T/C values are followed by the survivors on the day toxicity was checked, most often the fifth; where none is given, no animal had died by that day. Brackets with × give the number of equal values in this list.

System: L1210 leukemia ip in BDF1 mice, survival T/C
Assay: NCI In Vivo Anticancer Drug Screen. Data for tumor model L1210 Leukemia (intraperitoneal) in B6D2F1 (BDF1) mice
Details: higher T/C = longer survival

Nc1n[nH]c(N)n1
T/C (T/C endpoint: mean survival time, dose: 500.0 mg/kg/injection, schedule: Q01DX Z (ip), vehicle: other): 144 % of control
T/C (T/C endpoint: mean survival time, dose: 500.0 mg/kg/injection, schedule: Q03HX024 (ip), vehicle: saline): 293 [9 of 10 alive], 306 [9 of 10 alive], 321, 390 % of control
T/C (T/C endpoint: mean survival time, dose: 512.0 mg/kg/injection, schedule: Q## X024 (ip), vehicle: other): 135 % of control
T/C (T/C endpoint: mean survival time, dose: 512.0 mg/kg/injection, schedule: Q## X044 (ip), vehicle: other): 140 % of control
T/C (T/C endpoint: mean survival time, dose: 512.0 mg/kg/injection, schedule: Q#A X012 (ip), vehicle: other): 127 % of control
T/C (T/C endpoint: mean survival time, dose: 540.0 mg/kg/injection, schedule: Q03HX024 (ip), vehicle: saline, evaluated on day 5): 244 and 465 % of control
T/C (T/C endpoint: mean survival time, dose: 540.0 mg/kg/injection, schedule: Q03HX024 (ip), vehicle: saline, evaluated on day 45): 244 % of control
T/C (T/C endpoint: mean survival time, dose: 540.0 mg/kg/injection, schedule: Q03HX024 (ip), vehicle: saline, evaluated on day 60): 465 % of control
T/C (T/C endpoint: mean survival time, dose: 625.0 mg/kg/injection, schedule: Q03HX032 (ip), vehicle: saline): 142 % of control
survivor count (T/C endpoint: mean survival time, dose: 750.0 mg/kg/injection, schedule: Q01DX Z (ip), vehicle: methylcellulose (MC)): 3 of 6
T/C (T/C endpoint: mean survival time, dose: 800.0 mg/kg/injection, schedule: Q01DX006 (iv), vehicle: saline): 133 % of control
T/C (T/C endpoint: mean survival time, dose: 800.0 mg/kg/injection, schedule: Q01DX009 (ip), vehicle: saline, evaluated on day 30): 100, 123, 133, 134, 136, 140, 141, 143, 145, 150, 154, 159, 161 % of control
T/C (T/C endpoint: mean survival time, dose: 800.0 mg/kg/injection, schedule: Q01DX009 (ip), vehicle: saline, evaluated on day 60): 131, 145, 150 % of control
T/C (T/C endpoint: mean survival time, dose: 800.0 mg/kg/injection, schedule: Q01DX009 (ip), vehicle: saline, run until all animals had died): 142 % of control
T/C (T/C endpoint: mean survival time, dose: 800.0 mg/kg/injection, schedule: Q01DX009 (oral), vehicle: water): 128 % of control
T/C (T/C endpoint: mean survival time, dose: 800.0 mg/kg/injection, schedule: Q01DX009 (sc), vehicle: saline): 127 % of control
T/C (T/C endpoint: mean survival time, dose: 800.0 mg/kg/injection, schedule: Q01DX Z (oral), vehicle: saline): 136 % of control
survivor count (T/C endpoint: mean survival time, dose: 800.0 mg/kg/injection, schedule: Q#A X010 (ip), vehicle: saline): 6 of 6
T/C (T/C endpoint: mean survival time, dose: 810.0 mg/kg/injection, schedule: Q03HX024 (ip), vehicle: saline, evaluated on day 5): 104 and 235 % of control
T/C (T/C endpoint: mean survival time, dose: 810.0 mg/kg/injection, schedule: Q03HX024 (ip), vehicle: saline, evaluated on day 45): 104 % of control [9 of 10 alive]
T/C (T/C endpoint: mean survival time, dose: 810.0 mg/kg/injection, schedule: Q03HX024 (ip), vehicle: saline, evaluated on day 60): 235 % of control
T/C (T/C endpoint: mean survival time, dose: 900.0 mg/kg/injection, schedule: Q01DX005 (ip), vehicle: water): 134 % of control
survivor count (T/C endpoint: mean survival time, dose: 1000.0 mg/kg/injection, schedule: Q03HX008 (oral), vehicle: water): 5 of 8
survivor count (T/C endpoint: mean survival time, dose: 1000.0 mg/kg/injection, schedule: Q03HX024 (oral), vehicle: water): 5 of 8
survivor count (T/C endpoint: mean survival time, dose: 1000.0 mg/kg/injection, schedule: Q06HX016 (ip), vehicle: saline): 4 of 7 and 5 of 7
T/C (T/C endpoint: mean survival time, dose: 1000.0 mg/kg/injection, schedule: Q## X006 (oral), vehicle: water): 126 % of control
T/C (T/C endpoint: mean survival time, dose: 1024.0 mg/kg/injection, schedule: Q## X048 (ip), vehicle: other): 143 % of control
T/C (T/C endpoint: mean survival time, dose: 1024.0 mg/kg/injection, schedule: Q## X088 (ip), vehicle: other): 143 % of control
T/C (T/C endpoint: mean survival time, dose: 1600.0 mg/kg/injection, schedule: Q01DX005 (ip), vehicle: saline): 138 % of control
T/C (T/C endpoint: mean survival time, dose: 1600.0 mg/kg/injection, schedule: Q01DX009 (ip), vehicle: Klucel (hydroxypropylcellulose) (HPC)): 134 and 138 % of control
T/C (T/C endpoint: mean survival time, dose: 1600.0 mg/kg/injection, schedule: Q01DX009 (ip), vehicle: saline, evaluated on day 30): 91, 97, 122, 124, 129, 140 (2×), 143 (2×), 152, 161, 163 [5 of 6 alive], 168 % of control
T/C (T/C endpoint: mean survival time, dose: 1600.0 mg/kg/injection, schedule: Q01DX009 (ip), vehicle: saline, evaluated on day 60): 147, 197, 202 % of control
T/C (T/C endpoint: mean survival time, dose: 1600.0 mg/kg/injection, schedule: Q01DX009 (ip), vehicle: saline, run until all animals had died): 141 % of control
T/C (T/C endpoint: mean survival time, dose: 1600.0 mg/kg/injection, schedule: Q01DX009 (oral), vehicle: water): 140 % of control
T/C (T/C endpoint: mean survival time, dose: 1600.0 mg/kg/injection, schedule: Q01DX009 (sc), vehicle: saline): 136 % of control
T/C (T/C endpoint: mean survival time, dose: 1600.0 mg/kg/injection, schedule: Q01DX017 (ip), vehicle: water): 131 % of control
T/C (T/C endpoint: mean survival time, dose: 1600.0 mg/kg/injection, schedule: Q01DX Z (oral), vehicle: carboxymethylcellulose (CMC)): 145 % of control
T/C (T/C endpoint: mean survival time, dose: 1600.0 mg/kg/injection, schedule: Q02DX005 (ip), vehicle: saline): 132 % of control
T/C (T/C endpoint: mean survival time, dose: 1600.0 mg/kg/injection, schedule: Q12HX018 (ip), vehicle: water): 148 % of control
T/C (T/C endpoint: mean survival time, dose: 1600.0 mg/kg/injection, schedule: Q## X024 (ip), vehicle: saline): 131 % of control
T/C (T/C endpoint: mean survival time, dose: 1800.0 mg/kg/injection, schedule: Q01DX009 (ip), vehicle: water): 134 % of control
T/C (T/C endpoint: mean survival time, dose: 1800.0 mg/kg/injection, schedule: Q## X018 (ip), vehicle: saline): 136 % of control
survivor count (T/C endpoint: mean survival time, dose: 2000.0 mg/kg/injection, schedule: Q01DX Z (ip), vehicle: other): 6 of 6
T/C (T/C endpoint: mean survival time, dose: 2048.0 mg/kg/injection, schedule: Q## X044 (ip), vehicle: other): 125 % of control
T/C (T/C endpoint: mean survival time, dose: 2048.0 mg/kg/injection, schedule: Q#A X012 (ip), vehicle: other): 141 % of control
T/C (T/C endpoint: mean survival time, dose: 3200.0 mg/kg/injection, schedule: Q01DX Z (oral), vehicle: carboxymethylcellulose (CMC)): 125 % of control
survivor count (T/C endpoint: mean survival time, dose: 3200.0 mg/kg/injection, schedule: Q01DX Z (oral), vehicle: saline): 5 of 6
survivor count (T/C endpoint: mean survival time, dose: 4000.0 mg/kg/injection, schedule: Q01DX005 (oral), vehicle: water): 6 of 8
survivor count (T/C endpoint: mean survival time, dose: 4000.0 mg/kg/injection, schedule: Q01DX009 (ip), vehicle: saline): 7 of 10
survivor count (T/C endpoint: mean survival time, dose: 4000.0 mg/kg/injection, schedule: Q01DX009 (oral), vehicle: water): 6 of 8
T/C (T/C endpoint: mean survival time, dose: 4000.0 mg/kg/injection, schedule: Q04DX003 (ip), vehicle: saline): 143 % of control
T/C (T/C endpoint: mean survival time, dose: 4000.0 mg/kg/injection, schedule: Q04DX003 (oral), vehicle: water): 139 % of control
survivor count (T/C endpoint: mean survival time, dose: 4096.0 mg/kg/injection, schedule: Q## X024 (ip), vehicle: other): 5 of 10
survivor count (T/C endpoint: mean survival time, dose: 4096.0 mg/kg/injection, schedule: Q## X044 (ip), vehicle: other): 0 of 10
survivor count (T/C endpoint: mean survival time, dose: 4096.0 mg/kg/injection, schedule: Q## X088 (ip), vehicle: other): 9 of 10
survivor count (T/C endpoint: mean survival time, dose: 7200.0 mg/kg/injection, schedule: Q## X024 (ip), vehicle: saline): 2 of 6
survivor count (T/C endpoint: mean survival time, dose: 8192.0 mg/kg/injection, schedule: Q## X024 (ip), vehicle: other): 0 of 10
survivor count (T/C endpoint: mean survival time, dose: 8192.0 mg/kg/injection, schedule: Q## X048 (ip), vehicle: other): 0 of 10
T/C (T/C endpoint: median survival time, dose: 400.0 mg/kg/injection, schedule: Q## X004 (ip), vehicle: water): 127 % of control
T/C (T/C endpoint: median survival time, dose: 800.0 mg/kg/injection, schedule: Q## X004 (ip), vehicle: water): 144 % of control
T/C (T/C endpoint: median survival time, dose: 1600.0 mg/kg/injection, schedule: Q## X004 (ip), vehicle: water): 133 % of control
survivor count (T/C endpoint: median survival time, dose: 3200.0 mg/kg/injection, schedule: Q## X004 (ip), vehicle: water): 4 of 8
